From the supplement of paper PMC12889115
Some of the results follow. Values are raw readings; no control value is given beside them.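 First-pass screen: polymyxin B was added at a level that permeabilizes the Salmonella outer membrane while sparing the inner membrane. DMSO wells, with and without polymyxin B, defined maximum growth. Because plates differed from one another, each plate's data were ranked separately and the compounds with the lowest OD600 were carried forward as hits.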

System: Salmonella enterica serovar Typhimurium SL1344
Assay: bacterial growth OD600 after 18 h with compound and polymyxin B; higher = more bacterial growth (less inhibition)
Details: 50 µM, Mueller-Hinton broth

Row | SMILES | bacterial growth OD600 (polymyxin B 1 µg/mL) | bacterial growth OD600 (polymyxin B 0.75 µg/mL)
1 | CCOC(=O)N1CCC(NC(=O)C2CCC(=O)N(Cc3ccccc3F)C2)CC1 (stereo unspecified) | 0.961 | –
2 | CCOC(=O)C1(Cc2ccc(Cl)cc2)CCN(Cc2[nH]cnc2C)CC1 | – | 0.922
3 | COC(c1ccccc1)c1nnc(CCC(=O)NCc2cccs2)o1 (stereo unspecified) | 0.843 | –
4 | c1ccc(-c2ccc(-c3n[nH]cc3CN3CCSCC3)cc2)cc1 | 0.501 | –
5 | Cc1cnc(C(=O)N2CCCCC2C(=O)Nc2ccc(-n3nc(C)cc3C)cc2)cn1 (stereo unspecified) | 0.974 | –
6 | CCOC(=O)C1(Cc2ccc(F)cc2F)CCCN(C(=O)c2cnn(CC)c2)C1 (stereo unspecified) | 0.871 | –
7 | O=C(C1CCCC1)N(CC1CCN(C2Cc3ccccc3C2)CC1)CC1CCCO1 (stereo unspecified) | 0.911 | –
8 | CCC1CN(C(=O)c2ccc(NCC3CC3)nc2)CCN1C(C)C (stereo unspecified) | – | 0.852
9 | C#Cc1ccc(CN2CCC(Oc3cc(OC)ccc3C(=O)NCCOC)CC2)cc1 | 1.17 | –
10 | COc1cccc(OCc2cc(C(=O)N(C)C(C)c3nccs3)n[nH]2)c1 (stereo unspecified) | 0.926 | –
11 | O=C(c1ccc2c(c1)OCO2)C1CCCN(C(=O)NCc2ccccc2)C1 (stereo unspecified) | 0.8 | –
12 | O=C(CC(c1ccccc1)c1ccccc1F)NCCc1ccccn1 (stereo unspecified) | 0.68 | –
13 | O=C(CCc1ccccc1)Nc1ccc(N2CCC(NC3Cc4ccccc4C3)CC2)cc1 | – | 0.778
14 | c1cnc(-n2cccc2CNCc2cccnc2N2CCCCCCC2)nc1 | – | 0.769
15 | Cc1n[nH]c(C)c1CCN(C)C(=O)C1CCC(=O)N(CCc2ccccn2)C1 (stereo unspecified) | 0.993 | –
16 | COc1ccc(CC2(CCC(=O)NCCc3ccccc3OC)CCC(=O)N2)c(F)c1 (stereo unspecified) | – | 0.818

Some of the entries so far, in markdown.

| Row | SMILES | bacterial growth OD600 (polymyxin B 1 µg/mL) | bacterial growth OD600 (polymyxin B 0.75 µg/mL) |
| --- | --- | --- | --- |
| 9 | C#Cc1ccc(CN2CCC(Oc3cc(OC)ccc3C(=O)NCCOC)CC2)cc1 | 1.17 | – |
| 12 | O=C(CC(c1ccccc1)c1ccccc1F)NCCc1ccccn1 (stereo unspecified) | 0.68 | – |
| 15 | Cc1n[nH]c(C)c1CCN(C)C(=O)C1CCC(=O)N(CCc2ccccn2)C1 (stereo unspecified) | 0.993 | – |

Further results

Row | SMILES | bacterial growth OD600 (polymyxin B 1 µg/mL) | bacterial growth OD600 (polymyxin B 0.75 µg/mL)
17 | CC(=O)c1ccc(OCC(=O)N2CCOc3ccc(CN4CCN(CCO)CC4)cc3C2)cc1 | – | 0.861
18 | COc1ccc(-c2nn(-c3ccccc3C)cc2CN(C)CC2COCCO2)cc1F (stereo unspecified) | 0.863 | –
19 | CC(Cc1ccsc1)NC(=O)C1CC(Cc2ccccc2Cl)=NO1 (stereo unspecified) | – | 0.832
20 | CCN1CCN(C2(C(=O)N3CCCCCC3)Cc3ccccc3C2)CC1 | – | 0.848
21 | CCOC(=O)C1(Cc2ccc(F)cc2)CCCN(C(=O)CCCN2CCCC2=O)C1 (stereo unspecified) | 0.8 | –
22 | CC(=O)N1CCN(c2ncccc2CNCc2ccccc2C(F)(F)F)CC1 | – | 0.711
23 | O=C(c1coc(CN2CCN(Cc3ccccc3)CC2)n1)N1CCCCCCC1 | – | 0.725
24 | Cc1noc(C)c1CCCNC(=O)c1ccc(N2CCSCC2)nc1 | – | 0.775
25 | COCC(=O)N1CCC(Oc2ccccc2C(=O)NCC2CCCCC2)CC1 | 1.02 | –
26 | COc1ccc(CC2(CCC(=O)NCc3nc4ccccc4c(=O)[nH]3)CCC(=O)N2)c2ccccc12 (stereo unspecified) | – | 0.848
27 | CCOC(=O)C1(CC2CC2)CCN(Cc2nccn2-c2cccc(C)c2)CC1 | 0.018 | –
28 | Cc1cc(CN2CCC(O)(Cc3cc(-c4ccccc4)no3)CC2)cc(C)c1O | 0.87 | –
29 | Cc1c(C(C)NC(=O)c2ccc3c(c2)C(=O)N(C)C3=O)cnn1-c1ccccn1 (stereo unspecified) | 0.988 | –
30 | Cc1ccsc1C(=O)N1CCCC(N2CCN(Cc3ccc4c(c3)OCO4)CC2)C1 (stereo unspecified) | 0.865 | –
31 | Cc1ccccc1N1CCN(c2ncccc2CNC(=O)C2CCOCC2)CC1 | 0.901 | –
